# Results taken from patent publication US12458629B2, “Method for treating nonsense mutation mediated duchenne muscular dystrophy in pediatric patients” (PTC THERAPEUTICS, INC., priority 2019, dated 2025).
# Test: Palatability questionnaire, NCT02819557
# Design: species or system human
# Settings: number (%) of respondents
structure (smiles),measurement,setting,value
"O=C(O)c1cccc(-c2noc(-c3ccccc3F)n2)c1 [ataluren, 3-[5-(2-fluoro-phenyl)-[1,2,4]oxadiazol-3-yl]-benzoic acid]",respondents reporting problems giving the medication to the patient,,2 (14.3%)
same,respondents who disagreed that the medication was pleasant,,2 (14.3%)
same,respondents who agreed or strongly agreed that the medication was pleasant based on the child's reaction,"14 patients, granules for suspension",10 (71.5%)
